PubChem BioAssay AID445 (National Center for Advancing Translational Sciences (NCATS), 2006)
The list shows a part of the results. Shown are side measurements of this screen, not its main read-out; they come without a call. The list favours compounds with an active or inconclusive main result. Words in brackets tell the shape of the fitted curve; partial curves, single points and poor fits give uncertain potencies.

Assay: IkB Signaling
Settings: ABC-DLBCL IkBa-CBG/CBR dual luciferase ratio (green luciferase fused to IkBa over red control in OCI-Ly3 lymphoma cells), 4 h
Outline: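 Luminescence ratio of IκBα-fused green versus native red beetle luciferase in OCI-Ly3 cells, 4 h post-doxycycline with compound; red signal alone, scaled from basal (0%) to zero light (-100%), flagged nonspecific or cytotoxic effects.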

[1] = measured here: control luc red channel unless noted
[2] = measured here: IkB-luc green channel
[3] = measured here: control luc red channel

Compound: COc1ccc(-c2noc(N3CCC(C(=O)N4CCN(c5ccccc5OC)CC4)CC3)n2)cc1
- AC50 [1]: 15.8 µM [falling, partial curve]

Compound: Cc1ccc2nc(NCc3ccccc3)c3nnnn3c2c1
- AC50 [1]: 3.16 µM [rising, full curve]

Compound: CCOc1cccc(Nc2nn(-c3ccc(OC(F)(F)F)cc3)nc2C(C)=O)c1
- AC50 [1]: 10 µM [falling, partial curve]

Compound: CCOC(=O)c1cnc2c(C)c(Cl)ccc2c1NCCc1ccc(OC)c(OC)c1
- AC50 [1]: 12.6 µM [falling, partial curve]

Compound: COc1ccc(-c2nc3ccccc3s2)cc1O
- AC50 [1]: 6.31 µM [falling, partial curve]

Compound: Cc1nnc(C)n1-c1ccc(C(=O)Nc2cccc(Br)c2)cc1
- AC50 [1]: 0.631 µM [rising, full curve, poor fit]

Compound: COc1cccc(N2CCN(c3c4c(nc5nncn35)CCC4)CC2)c1
- AC50 [1]: 39.8 µM [falling, single point]

Compound: Cc1cccc(Cn2cc3c(=O)n(CC(=O)Nc4c(C)cccc4C)nc-3c3cc(F)ccc32)c1
- AC50 [1]: 31.6 µM [falling, single point]

Compound: CCOC(=O)c1cnc(SCC(=O)c2ccc3c(c2)OCCO3)nc1N
- AC50 [1]: 20 µM [falling, partial curve]

Compound: O=C1C(c2ccccn2)=[N+]([O-])c2ccccc21
- AC50 [1]: 31.6 µM [falling, partial curve, poor fit]

Compound: COC(=O)c1cc2oc3ccccc3c2n1Cc1nc(-c2ccccc2Cl)oc1C
- AC50 [1]: 1.26 µM [rising, full curve]

Compound: O=C(NCCN1CCN(c2ccccc2)CC1)Nc1cccc(Br)c1
- AC50 [1]: 39.8 µM [falling, single point]

Compound: Cc1ccc(NC(=O)C2CCN(S(=O)(=O)c3c(C)noc3C)CC2)cc1
- AC50 [1]: 6.31 µM [falling, partial curve]

Compound: CCOC(=O)c1cnn(-c2ccc(C(=O)Nc3ccc(OC(F)(F)F)cc3)cc2)c1N
- AC50 [1]: 0.00794 µM [rising, full curve, poor fit]

Compound: Fc1ccc(-c2nnn(Cc3nc4ccccc4s3)n2)cc1
- AC50 [1]: 39.8 µM [falling, single point]

Compound: CCOC(=O)c1ccc(NC(=O)C2CC(=O)NC(=Nc3ccc(C)c(C)c3)S2)cc1 (stereo not given)
- AC50 [1]: 20 µM [falling, partial curve]

Compound: CCCCN(C)CCNC(=O)c1ccc(Cn2c(=O)[nH]c3cc(OC)c(OC)cc3c2=O)cc1
- AC50 [1]: 0.501 µM [falling, full curve, poor fit]

Compound: CCc1ccc(CNC(=O)c2ccc3c(Cl)c4c(nc3c2)CCCC4)cc1
- AC50 [1]: 15.8 µM [falling, partial curve]

Compound: Cc1ccc(C)c(NC(=O)Cn2cc(C(=O)C3CCCCC3)c3ccccc32)c1
- AC50 [1]: 20 µM [falling, single point]

Compound: O=C(CN1CCCN(Cc2ccc(Cl)cc2)S1(=O)=O)Nc1ccccc1F
- AC50 [1]: 39.8 µM [falling, single point]

Compound: COc1cccc2c1Oc1ncccc1N(C(=O)CCC(=O)NCc1ccc(N(C)C)cc1)C2
- AC50 [1]: 31.6 µM [falling, single point]

Compound: COc1ccccc1NC(=O)c1ccc2c(Cl)c3c(nc2c1)CCCC3
- AC50 [1]: 3.16 µM [falling, partial curve]

Compound: CCOC(=O)c1c(C)[nH]c(C)c1S(=O)(=O)N1CCC(C(=O)N2CCN(c3ccc(Cl)cc3)CC2)CC1
- AC50 [1]: 31.6 µM [falling, partial curve]

Compound: CCOc1ccc(NC(=O)N2CC=C(c3c[nH]c4ccccc34)CC2)cc1
- AC50 [1]: 5.01 µM [falling, partial curve]

Compound: COC(=O)c1ccc(Cl)cc1NC(=O)N1CCCn2nc(C)cc21
- AC50 [1]: 1.58 µM [rising, partial curve]

Compound: CCCCOC(=O)CSc1nnc(-c2ccccc2)o1
- AC50 [1]: 0.158 µM [falling, full curve]

Compound: CC(=O)Nc1nonc1-c1nnc(SCC(=O)Nc2cc(C)cc(C)c2)n1C
- AC50 [1]: 31.6 µM [falling, single point]

Compound: Cc1ccc(C)c(N2CCN(C(=O)CN3CCSc4ccc(S(=O)(=O)N(C)C)cc43)CC2)c1
- AC50 [1]: 2.51 µM [falling, full curve]

Compound: COc1ccccc1CNc1ccc(-c2nc(C)no2)cc1[N+](=O)[O-]
- AC50 [1]: 10 µM [falling, partial curve]

Compound: Cc1oc2ncn(CC(C)C)c(=O)c2c1C(=O)N1CCN(c2ccc(F)cc2)CC1
- AC50 [1]: 0.2 µM [rising, full curve]

Compound: COc1cccc(NC(=O)/C(C#N)=C\c2cn(Cc3ccc(C)cc3)c3ccccc23)c1
- AC50 [1]: 2.51 µM [falling, partial curve]

Compound: O=C(c1ccc(C(F)(F)F)cc1)N1CCC(c2nc(-c3ccc(S(=O)(=O)N4CCCC4)cc3)no2)CC1
- AC50 [1]: 15.8 µM [falling, partial curve]

Compound: COc1cc2c(cc1O)C(SC)=NC(C)(C)C2
- AC50 [2]: 6.31 µM [rising, single point]
- AC50 [3]: 39.8 µM [falling, single point]

Compound: Cc1cccc(C)c1NC(=O)c1csc2c1CCCC2
- AC50 [1]: 25.1 µM [falling, single point]

Compound: O=C(NCCCc1nc2ccccc2n1Cc1cccc(Cl)c1)c1ccco1
- AC50 [1]: 15.8 µM [falling, single point]

Compound: Cc1cccnc1NC(=O)COc1ccc2oc3c(c2c1)CCCC3
- AC50 [1]: 39.8 µM [falling, single point]

Compound: CCn1c(SCc2nc3ccccc3s2)nnc1-c1cccs1
- AC50 [1]: 5.01 µM [falling, partial curve]

Compound: Cc1ccccc1NC(=O)c1ccc2nc(Cc3ccccc3)oc2c1
- AC50 [1]: 25.1 µM [falling, single point]

Compound: CC(=O)C1=C(C)NC(SCC(=O)c2ccc(Cl)cc2Cl)=C(C#N)C1c1ccco1 (stereo not given)
- AC50 [1]: 12.6 µM [falling, partial curve]

Compound: C=Cc1ccc(Cn2c(C(=O)O)c(CNCc3cccs3)c3ccc(C)cc32)cc1
- AC50 [1]: 15.8 µM [falling, partial curve]

Compound: COc1ccccc1C(=O)Nc1c(C(=O)N(CCN(C)C)Cc2ccco2)oc2ccccc12
- AC50 [1]: 39.8 µM [falling, single point]

Compound: Cn1c(SCc2ccc(F)cc2)nc2c([nH]c3ccccc32)c1=O
- AC50 [1]: 0.2 µM [falling, full curve, poor fit]

Compound: COc1cccc(CNC(=O)C2CCN(c3nc4ccc(Cl)cc4[nH]3)CC2)c1
- AC50 [1]: 12.6 µM [falling, partial curve]

Compound: Cc1ccc(C2c3c(-c4ccccc4O)n[nH]c3C(=O)N2CCCO)cc1 (stereo not given)
- AC50 [1]: 39.8 µM [falling, single point]

Compound: CCOC(=O)c1cccc(NC(=O)c2ccc3c(c2)nnn3C2CCCC2)c1
- AC50 [1]: 31.6 µM [falling, single point]

Compound: Cc1ccc(Cn2c(C(=O)Nc3cccc(Cl)c3)cc3sccc32)cc1
- AC50 [1]: 39.8 µM [falling, single point]

Compound: COc1ccc2c(c1)CC(NC(=O)Nc1cc(Cl)ccc1OC)CO2 (stereo not given)
- AC50 [1]: 0.2 µM [falling, partial curve]

Compound: CSc1nc(C)cc(Nc2c(C)cc(C)cc2C)n1
- AC50 [1]: 31.6 µM [falling, single point]

Compound: COC(=O)c1ccc(CSc2nc(C(F)(F)F)c3c(c2C#N)CCC3)o1
- AC50 [1]: 39.8 µM [rising, single point] [measured here: IkB-luc green channel]

Compound: COc1cccc(C(=O)Nc2ccc(Cl)c(-c3nc4ccccc4[nH]3)c2)c1
- AC50 [1]: 25.1 µM [falling, partial curve]

Compound: O=C(c1cc(-c2ccc(O)cc2)on1)N1CCc2ccccc2C1
- AC50 [1]: 20 µM [falling, partial curve]

Compound: Fc1ccc2c(Cl)c(-c3nnc(-c4cccs4)o3)sc2c1
- AC50 [1]: 0.00794 µM [falling, full curve]

Compound: CC1=C(C(=O)Nc2ccccc2C)C(c2ccncc2)n2nc(SCc3ccccc3)nc2N1 (stereo not given)
- AC50 [1]: 0.251 µM [falling, partial curve]

Compound: CCN1CCN(c2cc(C)c3cc(NC(=O)c4cccc(C(F)(F)F)c4)ccc3n2)CC1
- AC50 [1]: 39.8 µM [falling, single point]

Compound: CCOc1ccccc1OCCCC(=O)Nc1ccc(OC)nc1
- AC50 [1]: 20 µM [falling, partial curve]

Compound: CCOC(=O)c1ccc(NC(=O)CC2C(=O)N(c3cccc(OC)c3)C(=O)N2C2CCCCC2)cc1 (stereo not given)
- AC50 [1]: 12.6 µM [falling, partial curve]

Compound: Cn1c(=O)oc2cc(S(=O)(=O)NCc3ccncc3)ccc21
- AC50 [1]: 3.98 µM [falling, full curve, poor fit]

Compound: CCSc1nnc(NC(=O)c2ccccn2)s1
- AC50 [2]: 25.1 µM [rising, partial curve]
- AC50 [3]: 12.6 µM [falling, partial curve]

Compound: CC(C)(C)OC(=O)N1CCC(c2c(C(=O)NCc3ccc(F)cc3)cnn2-c2ccc(F)cc2)CC1
- AC50 [1]: 7.94 µM [falling, full curve]

Compound: COc1cccc(C(=O)N(Cc2sccc2C)C2CCS(=O)(=O)C2)c1 (stereo not given)
- AC50 [1]: 3.98 µM [rising, partial curve, poor fit]

Compound: COc1ccc(OCC2c3cc(OC)c(OC)cc3CCN2C(=O)c2ccc(F)cc2)cc1 (stereo not given)
- AC50 [1]: 25.1 µM [falling, partial curve]

Compound: Cc1ccc(-c2cn3c(n2)sc2cc(C(=O)NCCCN4CCCCC4)ccc23)cc1
- AC50 [1]: 6.31 µM [falling, partial curve]

Compound: O=S(=O)(NCc1nc2cccnc2n1Cc1ccc(F)cc1)c1ccc2c(c1)CCCC2
- AC50 [1]: 39.8 µM [falling, single point]
